We go through five molecules from US6803232B1, “NPY-Y7 receptor gene” (The Garvan Institute of Medical Research, priority 1998, dated 2004).

The chains behind the UniProt entries cited, without tags or fusion partners. Where a name states a change or a piece, a line headed by the entry shows the natural chain unless it says otherwise.
UniProt Q9Y5X5: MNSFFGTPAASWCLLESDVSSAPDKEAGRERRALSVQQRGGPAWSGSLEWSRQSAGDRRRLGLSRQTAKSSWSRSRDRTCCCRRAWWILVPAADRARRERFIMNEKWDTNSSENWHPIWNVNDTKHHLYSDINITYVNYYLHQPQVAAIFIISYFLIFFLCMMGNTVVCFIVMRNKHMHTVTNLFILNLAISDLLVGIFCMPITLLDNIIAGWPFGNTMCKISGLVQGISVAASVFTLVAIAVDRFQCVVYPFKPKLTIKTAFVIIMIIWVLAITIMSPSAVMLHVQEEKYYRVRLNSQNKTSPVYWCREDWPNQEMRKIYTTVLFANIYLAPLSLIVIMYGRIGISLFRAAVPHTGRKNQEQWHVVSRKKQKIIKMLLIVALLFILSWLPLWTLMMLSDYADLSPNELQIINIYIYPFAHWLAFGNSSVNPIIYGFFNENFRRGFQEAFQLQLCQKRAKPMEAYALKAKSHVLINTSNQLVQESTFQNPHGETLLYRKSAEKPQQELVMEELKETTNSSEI

No constants are given. Whether binding was seen depends on the method and setting. Some results given as binding are weak or reduced against the parent protein; the word gives no strength.

First the molecules themselves.
B1: PP (peptide, UniProt P01298 30-65, looked up)
peptide: APLEPVYPGDNATPEQMAQYAADLRRYINMLTRPRY

The assay addresses human NPY-Y7 receptor (human) (UniProt Q9Y5X5). In words: rank of potency, displacement of [125I]PYY on Y7 membranes.
“(Leu31, Pro34)NPY (from UniProt P01303 29-64) (peptide)”: the binding entry is “binds”.
As for “[13-36]NPY (from UniProt P01303 41-64) (peptide)”, the binding entry is listed as “binds”.
For “[3-36]NPY (from UniProt P01303 31-64) (peptide)”, the binding entry is “binds”.
Next, “NPY (from UniProt P01303 29-64) (peptide)”: “binds”; B1: “binds”.
